Some of the results follow.
tested on: T1, CTL2-GFP (C. trachomatis L2/434/Bu, GFP-expressing); design: species or system HeLa; Intracellular C. trachomatis growth in HeLa cells, bulk GFP fluorescence relative to DMSO; conditions: bulk GFP, single well; 28.5 h, 10 µM; inhibitor
T1 construct: L2/434/Bu, GFP-expressing

Structure (SMILES) | % of control remaining [%]
O=C(CCN1CCc2ccccc2C1)Nc1cccc(F)c1 [CBK264282] | 109.599
Cc1ccc2c(c1)C(NC(=O)N(C)C1CCS(=O)(=O)CC1)CC(C)(C)O2 (centres unmarked) [CBK307654] | 132.597
Cn1cc(C(=O)N2CCOCC2c2nc(-c3cccs3)no2)cn1 (centres unmarked) [CBK305422] | 116.023
COc1cc(-c2cnc(N)c(N[C@H](CO)C(C)C)n2)cc(OC)c1OC [CBK063765] | 123.852
CN(c1ncc(Br)cc1C(=O)Nc1ccc(C(F)(F)F)cc1)S(C)(=O)=O [CBK076542] | 100
CSc1nc(NC(=O)CCCc2ccccc2)cc(N2CCNCC2)n1 [CBK050258T] | 56.4184
CCn1cc(NC(=O)C(CC)(CC)CN)ccc1=O [CBK304320C] | 128.441
CS(=O)(=O)c1ccc(-c2nccnc2N2CCN(c3ccncc3)CC2)cc1 [CBK036924] | 230.974
O=C(O)CCN1CCN(S(=O)(=O)c2ccc3ccccc3c2)CC1 [CBK269255] | 153.322
COc1ccccc1N1CCN(C(=O)NCc2cnc(C)cn2)CC1 [CBK155367] | 124.843
O=S(=O)(N1CCCCCC1)n1ccnc1 [CBK269241] | 128.057
CC(C)(CO)CCCn1cncc1-c1cnn(C2CCCCC2)c1 [CBK281779] | 124.877
CCC(=O)N(C)[C@H]1CC[C@]2(CC1)CNC(=O)c1ccccc1O2 [CBK281683] | 110.864
Cc1cc(NS(=O)(=O)c2cccc(Cl)c2C)on1 [CBK022499] | 113.256
COc1ccc([C@@]23CC[C@@H](NC(=O)c4cc(F)c(Cl)cc4Cl)C[C@@H]2N(C)CC3)cc1OC [CBK074264T] | 50.894
COc1cc(CN2C[C@@H](c3ccccc3)[C@@H]3NC(=O)CCCC[C@H]32)cc(OC)c1 [CBK285646] | 114.21
O=C(NCCNc1c(Cl)cccc1[N+](=O)[O-])c1cccc(Br)c1 [CBK263940] | 104.752
CCN(Cc1ccc(C#N)cc1F)C(=O)Nc1cnn(CCOC)c1 [CBK305697] | 124.682
CCOC(=O)Cn1nc(-c2nonc2N)nc1-c1nonc1N [CBK265482] | 129.173
COc1ccc(C(=O)N(Cc2ccco2)Cc2cc3ccccc3nc2O)cc1 [CBK269594] | 81.8404
COc1cc2c(cc1OC)C(C)N(C(=O)Nc1ccc3c(c1)OCCO3)CC2 (centres unmarked) [CBK086204] | 136.597
CN1CCN(c2ccc(C(=O)O)cc2)CC1 [CBK264773] | 119.326
CC(C)C(=O)N[C@@H](C)Cn1c(C(F)(F)F)cc2cccnc21 [CBK283231] | 112.861
Cc1nc2n(CCN3CCCCC3)c3ccccc3n2c1C(=O)c1cccs1 [CBK278242B] | 118.26
COC(=O)Nc1ccc(S(=O)(=O)N2CCCC(C(=O)Nc3ccc4c(c3)OCO4)C2)cc1 (centres unmarked) [CBK265361] | 117.479
CC(=O)C1=C(O)C(=O)N(CC(=O)O)C1c1cccc([N+](=O)[O-])c1 (centres unmarked) [CBK262921] | 116.236

Structure (SMILES) | % of control remaining [%]
CC(CCc1ccccc1)N1CCN(S(=O)(=O)c2ccc3ccccc3c2)CC1 (centres unmarked) [CBK264240] | 96.9536
CCc1nn(Cc2ccccn2)c(=O)c2cc3sccc3n12 [CBK284074] | 172.372
CC(C)(C)OC(=O)NCc1ccc(CNCc2ccccc2C(F)(F)F)cc1 [CBK056703] | 120.284
c1ccc(N2CCC(CNCc3c[nH]nc3-c3cccnc3)C2)cc1 (centres unmarked) [CBK305738] | 141.671
O=C(NC(=S)Nc1ccc(S(=O)(=O)Nc2nccs2)cc1)C12CC3CC(CC(C3)C1)C2 [CBK261067] | 89.2666
Cc1c(C(=O)O)sc(S(=O)(=O)N2CCN(C(=O)CC3CCCC3)CC2)c1C(=O)O [CBK297122] | 114.877
CCn1c(C)cc2cc(NS(=O)(=O)c3ccc4[nH]c(=O)[nH]c(=O)c4c3)ccc21 [CBK286363] | 109.624
COc1cc(C)c(Nc2cc(-c3cccnc3)ncn2)cc1OC [CBK037754] | 92.7414
OC1CCCn2c1nc1cc(Cl)ccc12 (centres unmarked) [CBK113625] | 103.834
CC1(C)CC(=O)C(=CNCCCn2ccnc2)C(=O)C1 [CBK261686] | 121.693
FC(F)(F)c1ccc(OCc2ccc(-c3ccccc3)cc2)nc1 [CBK115830] | 152.175
O=C1CCC(=O)N1CCOc1nccnc1N1CCN(CCc2ccccc2)CC1 [CBK084302] | 123.926
O=C(c1cnc2ccccc2n1)N1CCN(CCc2ccccc2)CC1 [CBK200214] | 95.5868
COCCC(=O)NCc1ccccc1OC1CCNC1 (centres unmarked) [CBK024504T] | 113.87
Nc1cccc(Oc2ccc(C(c3ccc(Oc4cccc(N)c4)cc3)(C(F)(F)F)C(F)(F)F)cc2)c1 [CBK261645] | 91.5586
COc1ncccc1CNc1ncnc2c1cnn2CCO [CBK305980] | 136.653
Cc1cc(Cl)c(S(=O)(=O)N2CCN(c3ccc(F)cc3)CC2)cc1OCC(N)=O [CBK266439] | 152.116
CCN(CCc1nc2cc(OC)ccc2[nH]1)C(=O)c1cc(C#N)cn1C [CBK306658] | 96.2552
N#Cc1c(NC(=O)CCn2cnnn2)sc2c1CCC2 [CBK270041] | 122.56
CCOC(=O)CSc1nc2cc(Cl)c(Cl)cc2nc1NC(C)C [CBK107173] | 101.458
CN1C[C@@H](NC(=O)COc2ccccc2)C[C@H]1c1nc(-c2ccncc2)no1 [CBK288855] | 139.991
Cc1ccccc1C(=O)NC(NC(=S)Nc1sc2c(c1C(N)=O)CCCC2)C(Cl)(Cl)Cl (centres unmarked) [CBK261047] | 69.5206
O=S1(=O)C=C(c2ccc(Cl)cc2)S(=O)(=O)CC1 [CBK018403] | 123.364
COC(=O)c1sccc1S(=O)(=O)N1CCN(c2ncnc3scc(C)c23)CC1 [CBK023600] | 71.8985
O=C(NC1CCN(CC2(c3ccccc3)CC2)CC1)c1ccco1 [CBK285321] | 159.523
COc1cc(C2CC(=O)Nc3nc(N)[nH]c(=O)c32)ccc1OCc1ccc(F)cc1 (centres unmarked) [CBK293980] | 153.257

Laid out differently: three of the compounds above
Structure (SMILES),% of control remaining [%]
CCN(CCc1nc2cc(OC)ccc2[nH]1)C(=O)c1cc(C#N)cn1C [CBK306658],96.2552
N#Cc1c(NC(=O)CCn2cnnn2)sc2c1CCC2 [CBK270041],122.56
CCOC(=O)CSc1nc2cc(Cl)c(Cl)cc2nc1NC(C)C [CBK107173],101.458

2 compounds drawn at random from the list so far:
Structure (SMILES) | % of control remaining [%]
COc1cc(C2CC(=O)Nc3nc(N)[nH]c(=O)c32)ccc1OCc1ccc(F)cc1 (centres unmarked) [CBK293980] | 153.257
N#Cc1c(NC(=O)CCn2cnnn2)sc2c1CCC2 [CBK270041] | 122.56

Next part:

Structure (SMILES) | % of control remaining [%]
O=C(Cc1csc(-c2ccc(Cl)cc2)n1)N1CCN(c2ccccn2)CC1 [CBK107310] | 87.8357
COc1cccc(CNC(=O)C2CCN(c3nc4c(-c5cccc(C)c5)csc4c(=O)[nH]3)CC2)c1 [CBK215603] | 161.38
CCOC(=O)CCNC(=O)c1ccccc1-n1cccc1 [CBK149611] | 101.261
OCc1ccc(-c2nccnc2NCc2cccc(C(F)(F)F)c2)cc1 [CBK037076] | 74.2844
C[C@H](c1ccccc1)n1c(=O)[nH]c2ncc(-c3ccc(N(C)C)cc3)nc21 [CBK064367] | 178.594
Brc1ccc2c(c1)[C@H]1C=CC[C@H]1[C@@H](c1ccccc1)N2 [CBK303238] | 105.521
COc1ccc(-c2coc3c(C)c4oc(=O)c(CC(=O)O)c(C)c4cc23)cc1 [CBK269403] | 96.6384
O=C(O)/C=C/C(=O)Nc1cccc(C(=O)O)c1 [CBK260988] | 112.833
Cc1ccc(S(=O)(=O)N(CC(=O)NCC2CCCO2)c2cccc(C)c2C)cc1 (centres unmarked) [CBK265339] | 130.817
O=C1CCN(Cc2nc(-c3cccc(C(F)(F)F)c3)no2)CCN1 [CBK306368] | 91.0294
O=S(=O)(c1ccc(F)c(Cl)c1)N1CCCN(Cc2ccccc2)CC1 [CBK045211] | 92.7084
Cc1cc(CN(C)Cc2c(-c3ccccc3)nn(C)c2C)n[nH]1 [CBK281707] | 108.129
COc1ccc(NC(=O)N[C@@H]2CC[C@@]3(c4ccc(OC)c(OC)c4)CCN(C)[C@H]3C2)c(C)c1 [CBK036460T] | 88.188
CCOC(=O)CN1CCN(c2nccnc2OC2CCCCC2)CC1 [CBK082837T] | 76.4642
COCCCNC(=S)N/N=C/c1ccco1 [CBK006272] | 100.002
Cn1nccc1C(=O)N1CCC2(C/C=C/COc3ccccc3C(=O)NC[C@@H](Cc3ccccc3)NC2=O)CC1 [CBK292183] | 121.85
COc1cc(OC)c(NC(=O)C(C)Oc2ccc(Br)cc2)cc1Cl (centres unmarked) [CBK266791] | 147.574
COC(=O)c1ccccc1NC(=O)CSCc1ccc(Cl)cc1Cl [CBK131712] | 102.775
Cc1cn([C@H]2C[C@@H](O)[C@@H](CO)O2)c(N)nc1=O [CBK201327] | 154.984
CCOc1nc(=O)c(C)cn1C1CC(O)C(CO)O1 (centres unmarked) [CBK201334] | 137.692
Cc1nn(C)cc1CN(CCCn1ccnc1)Cc1cccc(F)c1 [CBK283098] | 138.059
CN(C)S(=O)(=O)c1ccc(NC(=O)CCC(=O)O)cc1 [CBK267156] | 162.364
CN(C)C(=O)N1CCC2(CC1)CC(=O)N(Cc1ccc(S(C)(=O)=O)cc1)C2=O [CBK155957] | 122.391
Cn1ccc(C(=O)NC2CCN(c3ncccn3)CC2)cc1=O [CBK304280] | 114.621
O=C1CCC(=O)N1CCn1c(=O)n(C(=O)CCC2CCCC2)c2ccccc21 [CBK106495] | 112.825

From paper PMC12040169 (PLOS Biology, 2025)
